Measurements taken from article PMC9918736.

Amino acid sequences for entries named in this document (tags omitted). A change or cut given only in a name is not applied to a line headed by its entry. Residues count along the entry.
UniProt Q8VI56, residues 21-1725: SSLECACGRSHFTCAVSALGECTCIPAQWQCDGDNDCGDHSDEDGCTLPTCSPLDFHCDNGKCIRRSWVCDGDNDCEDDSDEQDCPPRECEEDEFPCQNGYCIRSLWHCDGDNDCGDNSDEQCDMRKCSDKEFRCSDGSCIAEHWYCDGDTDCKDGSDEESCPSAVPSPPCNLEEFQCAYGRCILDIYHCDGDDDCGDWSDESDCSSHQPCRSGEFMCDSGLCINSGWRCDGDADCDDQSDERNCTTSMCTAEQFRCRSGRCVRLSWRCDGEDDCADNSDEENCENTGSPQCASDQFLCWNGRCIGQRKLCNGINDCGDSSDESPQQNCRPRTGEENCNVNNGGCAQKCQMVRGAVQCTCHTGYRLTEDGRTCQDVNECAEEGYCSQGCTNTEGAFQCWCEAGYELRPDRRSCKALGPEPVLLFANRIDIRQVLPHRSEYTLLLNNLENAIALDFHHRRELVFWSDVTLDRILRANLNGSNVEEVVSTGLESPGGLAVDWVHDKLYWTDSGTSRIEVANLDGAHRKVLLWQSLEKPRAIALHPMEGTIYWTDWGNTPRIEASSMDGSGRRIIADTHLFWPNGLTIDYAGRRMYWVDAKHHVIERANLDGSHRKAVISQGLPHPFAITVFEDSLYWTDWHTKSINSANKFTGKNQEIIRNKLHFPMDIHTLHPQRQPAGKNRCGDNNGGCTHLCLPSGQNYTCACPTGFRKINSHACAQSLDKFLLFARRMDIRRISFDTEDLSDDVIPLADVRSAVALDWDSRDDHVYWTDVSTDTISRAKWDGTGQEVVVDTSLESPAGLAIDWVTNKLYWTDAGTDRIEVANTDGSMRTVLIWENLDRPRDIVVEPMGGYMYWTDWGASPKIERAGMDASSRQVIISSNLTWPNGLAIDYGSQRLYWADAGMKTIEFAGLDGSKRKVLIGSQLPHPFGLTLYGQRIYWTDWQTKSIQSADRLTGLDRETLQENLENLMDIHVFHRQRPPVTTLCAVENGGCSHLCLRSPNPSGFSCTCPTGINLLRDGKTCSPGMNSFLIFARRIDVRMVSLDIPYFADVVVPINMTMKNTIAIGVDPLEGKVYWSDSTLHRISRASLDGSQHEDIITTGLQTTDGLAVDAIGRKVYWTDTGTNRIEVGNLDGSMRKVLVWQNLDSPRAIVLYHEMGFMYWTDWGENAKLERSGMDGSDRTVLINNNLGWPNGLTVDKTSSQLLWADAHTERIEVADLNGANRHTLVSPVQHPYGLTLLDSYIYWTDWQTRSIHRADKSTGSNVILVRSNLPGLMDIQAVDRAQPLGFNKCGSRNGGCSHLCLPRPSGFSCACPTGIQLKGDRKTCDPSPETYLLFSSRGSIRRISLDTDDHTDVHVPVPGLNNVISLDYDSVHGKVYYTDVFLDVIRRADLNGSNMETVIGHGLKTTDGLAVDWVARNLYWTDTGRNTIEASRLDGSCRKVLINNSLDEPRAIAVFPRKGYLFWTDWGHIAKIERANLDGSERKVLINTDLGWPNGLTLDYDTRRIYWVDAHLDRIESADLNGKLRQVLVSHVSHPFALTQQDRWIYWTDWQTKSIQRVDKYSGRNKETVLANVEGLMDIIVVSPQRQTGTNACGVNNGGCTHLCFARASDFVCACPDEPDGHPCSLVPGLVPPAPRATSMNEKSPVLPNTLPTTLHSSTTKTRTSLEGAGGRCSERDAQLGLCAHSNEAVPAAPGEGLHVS

Key:
Experiment in all cases: co-IP; HEK293 cells co-transfected with APP constructs and Flag-tagged LRP4 ECD constructs; lysates in modified RIPA buffer (150 mM NaCl, 2.5 mM EDTA, 50 mM Tris-HCl) incubated with anti-Flag beads 4-5 h or overnight at 4 °C; immunocomplexes probed with anti-APP antibody
[1] = target: Flag-LRP4 ECD Δβ1 (UniProt Q8VI56)
[2] = target: Flag-LRP4 ECD Δβ2 (UniProt Q8VI56)
[3] = target: Flag-LRP4 ECD Δβ3 (UniProt Q8VI56)
[4] = target: Flag-LRP4 ECD Δβ4 (UniProt Q8VI56)
[5] = target: Flag-tagged ECD of LRP4 (UniProt Q8VI56)

binding [1] | binding [2] | binding [3] | binding [4] | binding [5] | Substance
binds | binds | binds | binds |  | GFP-APP (amyloid precursor protein) (from UniProt P12023 18-770)
 |  |  |  | no binding | GFP-APP ΔE1 (from UniProt P12023)

Results are given in words; binding and its absence hold for the method and conditions named. In cells and extracts the contact can be indirect. For some assays here: A result given as binding can be weak or reduced; the word gives no strength.
